Laboratory results reported in the supplement of paper PMC10849652.
The list shows a part of the results.

Protein sequences, listed by entry. Tags and fused reporters are not part of them. Lines headed by an entry give the natural chain unless they say otherwise; changes in a name come on top.
UniProt Q13442: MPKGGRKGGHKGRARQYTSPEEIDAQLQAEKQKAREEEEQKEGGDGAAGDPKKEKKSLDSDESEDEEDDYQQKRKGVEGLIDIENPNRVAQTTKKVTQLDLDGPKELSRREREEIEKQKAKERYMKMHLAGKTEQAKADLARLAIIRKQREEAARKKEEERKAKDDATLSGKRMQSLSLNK
UniProt Q53EL6: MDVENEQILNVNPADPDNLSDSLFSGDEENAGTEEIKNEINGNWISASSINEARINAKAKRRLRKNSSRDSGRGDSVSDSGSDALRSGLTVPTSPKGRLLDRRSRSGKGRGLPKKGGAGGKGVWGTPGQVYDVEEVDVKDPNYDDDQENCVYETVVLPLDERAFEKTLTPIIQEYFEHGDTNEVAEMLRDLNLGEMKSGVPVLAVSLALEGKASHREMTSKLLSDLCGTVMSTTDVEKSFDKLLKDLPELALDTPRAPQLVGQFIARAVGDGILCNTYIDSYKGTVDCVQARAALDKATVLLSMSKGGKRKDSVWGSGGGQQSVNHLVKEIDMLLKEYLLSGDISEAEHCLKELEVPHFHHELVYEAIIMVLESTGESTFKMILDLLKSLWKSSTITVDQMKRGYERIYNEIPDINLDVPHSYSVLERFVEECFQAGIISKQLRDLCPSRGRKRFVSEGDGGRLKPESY
UniProt Q8N165: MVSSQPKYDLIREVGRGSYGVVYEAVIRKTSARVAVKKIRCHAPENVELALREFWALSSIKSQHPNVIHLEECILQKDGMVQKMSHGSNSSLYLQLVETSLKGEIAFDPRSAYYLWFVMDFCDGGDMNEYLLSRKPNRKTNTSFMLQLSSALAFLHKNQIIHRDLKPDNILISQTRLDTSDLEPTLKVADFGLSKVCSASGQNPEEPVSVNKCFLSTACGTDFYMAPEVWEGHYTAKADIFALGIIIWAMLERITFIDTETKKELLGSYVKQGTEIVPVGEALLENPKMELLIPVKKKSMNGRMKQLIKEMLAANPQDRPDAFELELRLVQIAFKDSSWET
UniProt Q9BSM1: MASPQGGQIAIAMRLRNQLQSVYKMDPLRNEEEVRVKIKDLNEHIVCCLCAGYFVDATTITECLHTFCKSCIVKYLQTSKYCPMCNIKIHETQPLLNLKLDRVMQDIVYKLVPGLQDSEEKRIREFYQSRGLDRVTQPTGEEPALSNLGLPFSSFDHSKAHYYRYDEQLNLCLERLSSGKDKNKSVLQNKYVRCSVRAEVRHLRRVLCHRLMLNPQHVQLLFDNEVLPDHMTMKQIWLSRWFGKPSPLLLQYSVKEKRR
UniProt Q9H792: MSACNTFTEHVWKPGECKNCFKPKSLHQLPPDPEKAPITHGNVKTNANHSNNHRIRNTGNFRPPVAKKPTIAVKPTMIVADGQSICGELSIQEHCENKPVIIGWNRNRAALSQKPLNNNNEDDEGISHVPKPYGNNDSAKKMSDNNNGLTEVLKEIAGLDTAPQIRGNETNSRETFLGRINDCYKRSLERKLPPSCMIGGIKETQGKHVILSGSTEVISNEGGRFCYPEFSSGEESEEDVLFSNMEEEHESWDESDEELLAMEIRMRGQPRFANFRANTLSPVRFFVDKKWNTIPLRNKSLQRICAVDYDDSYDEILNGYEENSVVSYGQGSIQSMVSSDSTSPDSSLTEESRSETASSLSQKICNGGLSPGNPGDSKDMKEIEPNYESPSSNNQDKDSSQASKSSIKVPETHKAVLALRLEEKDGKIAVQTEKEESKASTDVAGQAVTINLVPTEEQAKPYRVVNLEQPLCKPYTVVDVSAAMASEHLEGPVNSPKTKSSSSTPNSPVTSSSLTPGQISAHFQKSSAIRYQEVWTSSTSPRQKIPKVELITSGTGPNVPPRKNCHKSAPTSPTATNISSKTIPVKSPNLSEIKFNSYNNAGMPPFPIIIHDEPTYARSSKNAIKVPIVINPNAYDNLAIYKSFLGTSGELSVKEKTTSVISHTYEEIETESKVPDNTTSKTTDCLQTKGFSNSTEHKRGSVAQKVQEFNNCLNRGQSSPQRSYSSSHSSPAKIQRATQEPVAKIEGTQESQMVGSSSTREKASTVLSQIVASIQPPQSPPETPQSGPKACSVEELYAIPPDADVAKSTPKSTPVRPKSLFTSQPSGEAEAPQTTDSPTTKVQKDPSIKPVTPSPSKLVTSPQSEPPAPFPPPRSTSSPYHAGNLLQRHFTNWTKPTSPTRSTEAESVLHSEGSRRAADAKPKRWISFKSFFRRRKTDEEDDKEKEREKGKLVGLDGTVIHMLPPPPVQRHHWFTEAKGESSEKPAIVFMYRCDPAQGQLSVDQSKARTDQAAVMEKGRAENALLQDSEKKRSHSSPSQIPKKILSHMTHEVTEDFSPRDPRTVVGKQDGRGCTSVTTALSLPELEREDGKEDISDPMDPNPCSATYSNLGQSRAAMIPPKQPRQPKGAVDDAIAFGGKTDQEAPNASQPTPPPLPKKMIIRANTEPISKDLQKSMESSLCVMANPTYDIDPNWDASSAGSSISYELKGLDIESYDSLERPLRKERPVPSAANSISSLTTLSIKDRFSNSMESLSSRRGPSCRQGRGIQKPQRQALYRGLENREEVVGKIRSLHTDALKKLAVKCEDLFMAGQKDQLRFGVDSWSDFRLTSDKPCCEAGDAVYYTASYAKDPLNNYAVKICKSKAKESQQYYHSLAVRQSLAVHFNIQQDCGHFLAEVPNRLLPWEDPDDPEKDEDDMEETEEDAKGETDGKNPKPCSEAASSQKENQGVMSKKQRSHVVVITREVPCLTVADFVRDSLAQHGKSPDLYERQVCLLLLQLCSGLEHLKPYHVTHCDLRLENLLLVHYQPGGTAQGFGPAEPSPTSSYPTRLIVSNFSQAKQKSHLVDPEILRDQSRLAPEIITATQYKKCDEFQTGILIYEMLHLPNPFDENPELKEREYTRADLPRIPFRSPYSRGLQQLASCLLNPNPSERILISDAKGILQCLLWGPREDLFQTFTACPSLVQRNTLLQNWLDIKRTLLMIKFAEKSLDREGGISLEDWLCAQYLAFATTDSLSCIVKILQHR
UniProt O15055: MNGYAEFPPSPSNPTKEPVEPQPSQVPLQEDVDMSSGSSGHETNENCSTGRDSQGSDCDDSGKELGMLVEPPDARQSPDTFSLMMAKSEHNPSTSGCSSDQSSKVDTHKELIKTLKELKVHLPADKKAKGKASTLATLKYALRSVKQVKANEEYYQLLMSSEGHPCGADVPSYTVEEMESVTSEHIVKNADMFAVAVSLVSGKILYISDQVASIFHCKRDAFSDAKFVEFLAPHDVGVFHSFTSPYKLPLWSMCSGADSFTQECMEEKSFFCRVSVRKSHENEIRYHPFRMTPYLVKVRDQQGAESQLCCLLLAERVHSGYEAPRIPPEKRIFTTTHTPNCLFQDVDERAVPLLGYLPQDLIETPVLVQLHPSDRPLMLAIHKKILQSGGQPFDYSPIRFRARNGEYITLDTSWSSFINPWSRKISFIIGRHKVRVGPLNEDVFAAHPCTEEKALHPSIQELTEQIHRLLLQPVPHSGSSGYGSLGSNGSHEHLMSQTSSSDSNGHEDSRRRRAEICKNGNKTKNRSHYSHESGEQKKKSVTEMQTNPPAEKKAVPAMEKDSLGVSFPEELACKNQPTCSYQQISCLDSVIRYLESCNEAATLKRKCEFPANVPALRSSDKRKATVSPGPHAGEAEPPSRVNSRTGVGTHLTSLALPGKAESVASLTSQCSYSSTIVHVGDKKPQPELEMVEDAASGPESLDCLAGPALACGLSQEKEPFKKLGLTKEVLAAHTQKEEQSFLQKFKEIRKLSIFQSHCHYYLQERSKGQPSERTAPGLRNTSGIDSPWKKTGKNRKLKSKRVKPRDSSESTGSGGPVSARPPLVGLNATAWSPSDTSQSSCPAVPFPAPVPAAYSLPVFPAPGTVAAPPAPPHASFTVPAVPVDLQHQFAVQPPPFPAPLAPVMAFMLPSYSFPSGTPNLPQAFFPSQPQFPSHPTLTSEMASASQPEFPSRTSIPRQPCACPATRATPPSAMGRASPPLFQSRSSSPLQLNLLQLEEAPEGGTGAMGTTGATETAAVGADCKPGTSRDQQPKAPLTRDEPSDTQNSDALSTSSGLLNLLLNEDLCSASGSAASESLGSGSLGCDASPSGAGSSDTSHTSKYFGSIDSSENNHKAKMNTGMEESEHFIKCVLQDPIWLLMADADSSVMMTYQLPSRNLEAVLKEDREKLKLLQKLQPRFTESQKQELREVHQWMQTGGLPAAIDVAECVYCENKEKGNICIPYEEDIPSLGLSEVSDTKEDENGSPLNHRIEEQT
UniProt Q3KNV8: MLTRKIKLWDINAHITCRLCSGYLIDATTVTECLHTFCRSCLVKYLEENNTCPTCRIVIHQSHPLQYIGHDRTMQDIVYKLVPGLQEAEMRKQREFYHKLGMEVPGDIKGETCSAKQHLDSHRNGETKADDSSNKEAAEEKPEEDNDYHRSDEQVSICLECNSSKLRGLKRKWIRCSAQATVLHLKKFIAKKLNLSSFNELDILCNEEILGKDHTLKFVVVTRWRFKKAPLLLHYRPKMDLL
UniProt P56589: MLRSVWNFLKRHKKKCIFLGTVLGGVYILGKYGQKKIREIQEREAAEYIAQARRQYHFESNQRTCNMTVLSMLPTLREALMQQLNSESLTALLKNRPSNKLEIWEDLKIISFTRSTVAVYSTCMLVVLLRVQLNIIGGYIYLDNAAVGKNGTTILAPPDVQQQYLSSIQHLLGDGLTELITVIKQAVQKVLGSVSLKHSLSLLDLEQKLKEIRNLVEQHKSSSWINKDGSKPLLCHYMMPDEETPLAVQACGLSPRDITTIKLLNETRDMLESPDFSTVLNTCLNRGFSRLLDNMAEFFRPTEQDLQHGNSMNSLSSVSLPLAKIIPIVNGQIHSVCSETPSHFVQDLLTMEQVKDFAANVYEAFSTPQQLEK
UniProt Q9UKK3: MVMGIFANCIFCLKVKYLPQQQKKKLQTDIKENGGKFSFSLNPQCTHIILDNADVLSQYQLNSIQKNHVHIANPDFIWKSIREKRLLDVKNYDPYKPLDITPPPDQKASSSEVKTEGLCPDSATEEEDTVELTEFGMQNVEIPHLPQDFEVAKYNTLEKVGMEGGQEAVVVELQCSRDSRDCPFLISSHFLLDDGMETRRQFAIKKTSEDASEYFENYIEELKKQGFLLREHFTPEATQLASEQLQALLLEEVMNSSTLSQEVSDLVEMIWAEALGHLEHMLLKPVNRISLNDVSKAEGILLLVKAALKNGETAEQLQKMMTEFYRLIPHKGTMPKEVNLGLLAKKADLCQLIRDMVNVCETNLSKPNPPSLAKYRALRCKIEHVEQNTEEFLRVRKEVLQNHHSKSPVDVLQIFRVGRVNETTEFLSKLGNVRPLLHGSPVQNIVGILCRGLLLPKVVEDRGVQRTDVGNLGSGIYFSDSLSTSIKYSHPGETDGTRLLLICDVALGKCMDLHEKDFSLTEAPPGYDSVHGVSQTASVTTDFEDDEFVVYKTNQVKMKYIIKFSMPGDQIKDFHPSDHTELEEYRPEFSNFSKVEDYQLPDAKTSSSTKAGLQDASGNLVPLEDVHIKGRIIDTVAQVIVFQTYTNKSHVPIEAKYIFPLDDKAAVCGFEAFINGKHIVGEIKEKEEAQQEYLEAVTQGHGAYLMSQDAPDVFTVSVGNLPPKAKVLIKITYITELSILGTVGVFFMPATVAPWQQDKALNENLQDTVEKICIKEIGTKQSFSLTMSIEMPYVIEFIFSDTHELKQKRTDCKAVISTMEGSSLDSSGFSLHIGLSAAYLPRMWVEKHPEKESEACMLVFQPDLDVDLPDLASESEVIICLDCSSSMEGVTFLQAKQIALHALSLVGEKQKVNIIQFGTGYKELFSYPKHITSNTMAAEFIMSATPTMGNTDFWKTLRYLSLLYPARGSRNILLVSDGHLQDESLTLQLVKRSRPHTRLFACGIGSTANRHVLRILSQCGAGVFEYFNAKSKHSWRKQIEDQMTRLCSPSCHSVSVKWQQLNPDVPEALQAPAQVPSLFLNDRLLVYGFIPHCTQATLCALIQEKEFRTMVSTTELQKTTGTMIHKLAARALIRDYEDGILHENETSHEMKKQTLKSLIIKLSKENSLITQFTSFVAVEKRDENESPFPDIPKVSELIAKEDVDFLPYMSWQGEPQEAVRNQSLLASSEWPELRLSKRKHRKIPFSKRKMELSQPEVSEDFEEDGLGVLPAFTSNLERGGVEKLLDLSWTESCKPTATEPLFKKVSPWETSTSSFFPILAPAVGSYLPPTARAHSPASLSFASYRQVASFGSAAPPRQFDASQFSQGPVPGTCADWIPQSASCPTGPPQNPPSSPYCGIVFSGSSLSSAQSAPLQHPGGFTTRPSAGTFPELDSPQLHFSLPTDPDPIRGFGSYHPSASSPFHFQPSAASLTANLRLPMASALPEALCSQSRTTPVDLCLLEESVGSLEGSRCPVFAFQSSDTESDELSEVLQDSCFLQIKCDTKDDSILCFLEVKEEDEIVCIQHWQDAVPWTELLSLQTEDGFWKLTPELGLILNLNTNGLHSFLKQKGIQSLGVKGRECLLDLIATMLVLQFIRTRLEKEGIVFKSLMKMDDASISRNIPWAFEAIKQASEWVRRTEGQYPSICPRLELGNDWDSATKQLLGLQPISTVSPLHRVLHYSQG

Columns and labels:
Assay in all cases: log2 fold change, soluble protein after heating vs DMSO (PISA); higher = thermal stabilisation; K562 lysate, 10 uM; active = over 0.2 and 3.5 SD of the protein, either way, in both replicates (recomputed)
[1] = compound: CCCS(=O)(=O)Nc1ccc(F)c(C(=O)c2c[nH]c3ncc(-c4ccc(Cl)cc4)cc23)c1F [vemurafenib]
How it was run: (§1)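 Soluble protein was defined as the supernatant remaining after 21,000xg for 90 min, following pooling of heated aliquots and adjustment to 0.5% NP-40 at 4°C. Before that, crude K562 extract at 1 mg/mL protein in PBS pH 7.4 with 1 mM MgCl2 was treated with 10 μM compound for 30 min and heated for 3 min across 48°C-58°C. Quantification used TMTpro 16plex LC-MS/MS with channel sums equalised, and values are log-two fold changes in thermal stability relative to solvent controls from duplicates.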

[2] = compound: CCCS(=O)(=O)Nc1ccc(F)c(C(=O)c2c[nH]c3ncc(Cl)cc23)c1F
How it was run: as §1

[3] = compound: CCN(CCCOc1ccc2c(Nc3cc(CC(=O)Nc4cccc(F)c4)[nH]n3)ncnc2c1)CCOP(=O)(O)O [barasertib]
How it was run: as §1

[4] = compound: CC[C@@H]1C(=O)N(C)c2cnc(Nc3ccc(C(=O)NC4CCN(C)CC4)cc3OC)nc2N1C1CCCC1
How it was run: as §1

[5] = compound: CC[C@@H]1C(=O)N(C)c2cnc(Nc3ccc(C(=O)N[C@H]4CC[C@H](N5CCN(CC6CC6)CC5)CC4)cc3OC)nc2N1C(C)C [volasertib]
How it was run: as §1

[6] = compound: CCn1c(C(=O)N(C2CC2)C2CC2)cc2c3c(ncn3C)c(Nc3cc(C)n(C)n3)nc21
How it was run: as §1

[7] = compound: CCn1cc(-c2ccnc3[nH]c(-c4cccc(CN(C)C)c4)cc23)c(-c2ccc(NC(=O)N(C)C)cc2)n1
How it was run: as §1

[8] = compound: CN1CCC(CNc2ccc3ncc(-c4cccc(OC(F)(F)F)c4)n3n2)CC1
How it was run: as §1

[9] = compound: CN1CCN(CCOc2cc(OC3CCOCC3)c3c(Nc4c(Cl)ccc5c4OCO5)ncnc3c2)CC1 [saracatinib]
How it was run: as §1

[10] = compound: CN1CCN(c2nc(C3=C(c4c[nH]c5ccccc45)C(=O)NC3=O)c3ccccc3n2)CC1 [sotrastaurin]
How it was run: as §1

Measured: log2 fold change

PDAP1 (UniProt Q13442)
inactive: [1] -0.026 | [2] -0.01 | [3] -0.064 | [4] 0.069 | [5] 0.04 | [6] -0.043 | [8] 0.159 | [9] -0.002 | [10] -0.02
active: [7] -0.267

PBDC1 (UniProt Q9BVG4)
inactive: [1] -0.022 | [2] -0.006 | [3] 0.009 | [4] 0.003 | [5] 0.012 | [6] 0.01 | [7] 0.037 | [8] -0.007 | [9] -0.009 | [10] 0.006

PDCD4 (UniProt Q53EL6)
inactive: [1] 0.014 | [2] 0.02 | [3] 0.024 | [4] -0.023 | [5] -0.03 | [6] 0.029 | [7] -0.029 | [8] -0.013 | [9] 0.009 | [10] 0.001

PARP1 (UniProt P09874)
inactive: [1] 0.003 | [2] 0.018 | [3] 0.001 | [4] -0.016 | [5] -0.012 | [6] 0.013 | [7] 0.113 | [8] -0.075 | [9] -0.005 | [10] -0.013

PCGF5 (UniProt Q86SE9)
inactive: [1] -0.032 | [2] -0.029 | [3] -0.097 | [4] 0.018 | [5] 0.051 | [6] -0.032 | [9] 0.029 | [10] 0.075

PCK1 (UniProt P35558)
inactive: [1] 0.2 | [2] 0.026 | [3] 0.287 | [5] -0.117 | [7] -1.18 | [8] 0.461

PCF11 (UniProt O94913)
inactive: [1] 0.042 | [2] 0.012 | [3] 0.015 | [4] 0.02 | [5] -0.029 | [6] -0.045 | [7] 0.081 | [8] -0.018 | [9] -0.003 | [10] 0.006

PDSS2 (UniProt Q86YH6)
inactive: [1] -0.062 | [2] 0.015 | [3] -0.075 | [5] -0.005 | [6] -0.022 | [7] 0.104 | [8] -0.006 | [9] 0.096 | [10] 0.039

PEF1 (UniProt Q9UBV8)
inactive: [1] -0.025 | [2] 0.015 | [3] 0.189 | [4] 0.033 | [5] 0.009 | [6] -0.001 | [7] -0.116 | [8] -0.043 | [9] -0.025 | [10] -0.016

PCGF6 (UniProt Q9BYE7)
inactive: [1] -0.132 | [2] -0.286 | [5] -0.083 | [6] 0.03 | [7] -0.111 | [8] 0.098 | [9] -0.04 | [10] 0.021

2 consecutive entries out of the list so far, for reference:
PEF1 (UniProt Q9UBV8)
inactive: [1] -0.025 | [2] 0.015 | [3] 0.189 | [4] 0.033 | [5] 0.009 | [6] -0.001 | [7] -0.116 | [8] -0.043 | [9] -0.025 | [10] -0.016

PCGF6 (UniProt Q9BYE7)
inactive: [1] -0.132 | [2] -0.286 | [5] -0.083 | [6] 0.03 | [7] -0.111 | [8] 0.098 | [9] -0.04 | [10] 0.021

Next records follow.

PCCB (UniProt P05166)
inactive: [1] 0.014 | [2] 0.019 | [3] 0.007 | [4] 0.03 | [5] -0.004 | [6] -0.008 | [7] -0.04 | [8] 0.06 | [9] 0.008 | [10] 0.005

PGAM4 (UniProt Q8N0Y7)
inactive: [1] -0.012 | [2] -0.01 | [3] -0.045 | [4] 0.068 | [5] 0.051 | [6] -0.07 | [7] 0.012 | [8] 0.015 | [9] -0.012 | [10] -0.007

PARP12 (UniProt Q9H0J9)
inactive: [2] -0.281 | [3] 0.001 | [4] -0.021 | [5] 0.051 | [6] 0.049 | [9] 0.025 | [10] 0.047

PECR (UniProt Q9BY49)
inactive: [4] 0.023

PDIK1L (UniProt Q8N165)
inactive: [6] 0.203 | [9] 0.025

PDE8A (UniProt O60658)
inactive: [1] -0.205 | [3] -0.105 | [10] 0.016

PEX12 (UniProt O00623)
inactive: [2] 0.014 | [5] -0.014 | [7] 0.083 | [8] -0.236

PDP1 isoform 2 (UniProt Q9P0J1)
inactive: [4] 0.018 | [6] -0.743 | [9] -0.062

Retrieved one by one from the list above, 2 records:
PECR (UniProt Q9BY49)
inactive: [4] 0.023

PEX12 (UniProt O00623)
inactive: [2] 0.014 | [5] -0.014 | [7] 0.083 | [8] -0.236

Further results follow:

PDE6D (UniProt O43924)
inactive: [2] 0.101 | [3] 0.188 | [4] 0.121 | [5] -0.052 | [6] -0.149 | [7] -0.006 | [8] 0.077 | [9] -0.026

PARPBP (UniProt Q9NWS1)
inactive: [1] 0.13 | [3] 0.057 | [4] 0.07 | [7] -0.371 | [8] 0.193 | [9] 0.019

PFN1 (UniProt I3L3D5)
inactive: [2] -0.142 | [3] 0.241 | [4] -0.01 | [5] -0.107 | [6] -0.067 | [8] -0.135
active: [7] 0.924

PCGF1 (UniProt Q9BSM1)
inactive: [1] 0.151 | [4] 0.052 | [7] -0.21 | [8] -0.021 | [9] 0.036

PCM1 isoform 5 (UniProt Q15154)
inactive: [4] -0.022 | [10] 0.009

PEX10 isoform 2 (UniProt O60683)
inactive: [3] 0.213

PCMTD2 (UniProt Q9NV79)
inactive: [1] 0.109 | [4] -0.163 | [10] -0.192

PDE4A (UniProt P27815)
inactive: [1] 0.008 | [3] -0.038 | [4] 0.139 | [6] 0.078 | [7] 0.206 | [8] -0.003 | [9] -0.071 | [10] -0.003

PDE3B (UniProt Q13370)
inactive: [6] 0 | [7] 0.074 | [8] -0.035 | [9] 0.039

PDE4DIP (UniProt E9PS60)
active: [7] -0.942
inactive: [1] -0.014 | [4] 0.017 | [8] 0.153 | [9] 0.067 | [10] 0.137

PEAK1 (UniProt Q9H792)
inactive: [1] 0.031 | [3] 0.075 | [6] 0.051 | [7] 0.011 | [8] -0.014 | [9] -0.019 | [10] -0.011

PCMTD1 (UniProt Q96MG8)
inactive: [1] -0.05 | [4] -0.007

PER2 (UniProt O15055)
inactive: [1] 0.027 | [7] -0.339 | [8] 0.031

PDIA4, A0A499FI48
inactive: [8] -0.33 | [9] 0.03 | [10] -0.048
active: [7] 1.69

PGAP2 isoform 2 (UniProt Q9UHJ9)
inactive: [4] -0.055

PCGF3 isoform 2 (UniProt Q3KNV8)
inactive: [10] 0.193

PGD (UniProt K7EPF6)
inactive: [2] 0.041 | [3] 0.527 | [5] -0.014 | [10] 0.109

PDCD7 (UniProt Q8N8D1)
inactive: [4] -0.204 | [10] -0.038

PEX6 (UniProt Q13608)
inactive: [3] -0.107 | [4] 0.181 | [7] 0.024 | [8] -0.29 | [9] -0.001

PBRM1 (UniProt Q86U86)
inactive: [2] 0.005 | [3] 0.028 | [4] 0.155 | [5] -0.064 | [6] 0.007 | [7] -0.049 | [8] -0.077 | [9] -0.092 | [10] -0.078

PCBP2 (UniProt F8W0G4)
inactive: [1] 0.121 | [3] 0.035 | [4] -0.253 | [6] -0.066 | [9] 0.005

PEX3 (UniProt P56589)
inactive: [2] 0.077 | [4] -0.02 | [5] 0.059 | [7] -0.184 | [8] 0.306 | [9] -0.04 | [10] -0.013

PDCD6 isoform 2 (UniProt O75340)
inactive: [6] -0.018 | [7] -0.018 | [8] -0.032

PEX5 (UniProt J3KPV0)
inactive: [1] -0.053 | [4] 0 | [6] 0.324

PARP4 (UniProt Q9UKK3)
inactive: [2] -0.032 | [3] 0.056 | [4] 0.006 | [5] -0.338 | [7] 0.13 | [8] -0.008 | [9] 0.068 | [10] 0.01

PCBP2 (UniProt F8VRH0)
inactive: [2] -0.035 | [5] -0.058 | [6] -0.138 | [7] -0.033 | [8] -0.047 | [10] -0.066

PER1 (UniProt O15534)
inactive: [7] -0.173 | [8] -0.047 | [9] -0.111 | [10] -0.154
